Data from patent US20240209062A1 (INVETX, published 2024).
These are yes or no findings as the source states them, for the method shown. Some results given as binding are weak or reduced against the parent protein; the word gives no strength. Tags and fused reporters may be left off the sequences shown.

By UniProt entry, the sequences of proteins in these tests, tags left out. Where a name states a change or a piece, a line headed by the entry shows the natural chain unless it says otherwise.
UniProt Q5MGS7: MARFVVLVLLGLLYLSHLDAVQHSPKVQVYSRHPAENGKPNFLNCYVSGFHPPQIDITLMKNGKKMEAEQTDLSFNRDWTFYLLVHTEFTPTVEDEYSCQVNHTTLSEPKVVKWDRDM

Target: feline FcRn (soluble portion of large subunit p51 isoform X1 with C-terminal 6xHis-tag, co-expressed with feline beta2-microglobulin with C-terminal STREP-TAG II) (feline) (UniProt Q5MGS7)
Test: SPR, pH 5.9

binding | Binder
binds | IgG with feline IgG1a Fc variant S428M, R301Y (antibody, IgG1a constant domain with MALA mutations (M234A, L244A as printed); variable domains from WO 2023/97275) heavy: DVQLVESGGDLVKPGGSLRLTCVASGLSLTSDSMSWVRQAPGKGLQWVSTLWSNRGTYYTDSVKGRFTISKDNAENTLYLQMNNLKTEDTATYYCASIYYYEADYLHWYFDFWGQGALVTVSSASTTAPSVFPLAPSCGTTSGATVALACLVLGYFPEPVTVSWNSGALTSGVHTFPAVLQASGLYSLSSMVTVPSSRWLSDTFTCNVAHPPSNTKVDKTVRKTDHPPGPKPCDCPKCPPPEAAGGPSIFIFPPKPKDTLSISRTPEVTCLVVDLGPDDSDVQITWFVDNTQVYTAKTSPREEQFNSTYYVVSVLPILHQDWLKGKEFKCKVNSKSLPSPIERTISKAKGQPHEPQVYVLPPAQEELSRNKVSVTCLIKSFHPPDIAVEWEITGQPEPENNYRTTPPQLDSDGTYFVYSKLSVDRSHWQRGNTYTCSVMHEALHSHHTQKSLTQSPG light: EIQMTQSPTSLSASVGDRVTITCRASEGIANNLSWYQQTPGKAPKLLIYATSNLHSGVPSRFSGSGSGTDFTLTISSLQPEDFATYYCQQGFKWPLTFGGGTKLEITRSDAQPSVFLFQPSLDELHTGSASIVCILNDFYPKEVNVKWKVDGVVQNKGIQESTTEQNSKDSTYSLSSTLTMSSTEYQSHEKFSCEVTHKSLASTLVKSFNRSECQRE
binds | IgG with feline IgG1a Fc variant S428M, R392D (antibody, IgG1a constant domain with MALA mutations (M234A, L244A as printed); variable domains from WO 2023/97275) heavy: DVQLVESGGDLVKPGGSLRLTCVASGLSLTSDSMSWVRQAPGKGLQWVSTLWSNRGTYYTDSVKGRFTISKDNAENTLYLQMNNLKTEDTATYYCASIYYYEADYLHWYFDFWGQGALVTVSSASTTAPSVFPLAPSCGTTSGATVALACLVLGYFPEPVTVSWNSGALTSGVHTFPAVLQASGLYSLSSMVTVPSSRWLSDTFTCNVAHPPSNTKVDKTVRKTDHPPGPKPCDCPKCPPPEAAGGPSIFIFPPKPKDTLSISRTPEVTCLVVDLGPDDSDVQITWFVDNTQVYTAKTSPREEQFNSTYRVVSVLPILHQDWLKGKEFKCKVNSKSLPSPIERTISKAKGQPHEPQVYVLPPAQEELSRNKVSVTCLIKSFHPPDIAVEWEITGQPEPENNYDTTPPQLDSDGTYFVYSKLSVDRSHWQRGNTYTCSVMHEALHSHHTQKSLTQSPG light: EIQMTQSPTSLSASVGDRVTITCRASEGIANNLSWYQQTPGKAPKLLIYATSNLHSGVPSRFSGSGSGTDFTLTISSLQPEDFATYYCQQGFKWPLTFGGGTKLEITRSDAQPSVFLFQPSLDELHTGSASIVCILNDFYPKEVNVKWKVDGVVQNKGIQESTTEQNSKDSTYSLSSTLTMSSTEYQSHEKFSCEVTHKSLASTLVKSFNRSECQRE
binds | IgG with feline IgG1a Fc variant S428M, R392E (antibody, IgG1a constant domain with MALA mutations (M234A, L244A as printed); variable domains from WO 2023/97275) heavy: DVQLVESGGDLVKPGGSLRLTCVASGLSLTSDSMSWVRQAPGKGLQWVSTLWSNRGTYYTDSVKGRFTISKDNAENTLYLQMNNLKTEDTATYYCASIYYYEADYLHWYFDFWGQGALVTVSSASTTAPSVFPLAPSCGTTSGATVALACLVLGYFPEPVTVSWNSGALTSGVHTFPAVLQASGLYSLSSMVTVPSSRWLSDTFTCNVAHPPSNTKVDKTVRKTDHPPGPKPCDCPKCPPPEAAGGPSIFIFPPKPKDTLSISRTPEVTCLVVDLGPDDSDVQITWFVDNTQVYTAKTSPREEQFNSTYRVVSVLPILHQDWLKGKEFKCKVNSKSLPSPIERTISKAKGQPHEPQVYVLPPAQEELSRNKVSVTCLIKSFHPPDIAVEWEITGQPEPENNYETTPPQLDSDGTYFVYSKLSVDRSHWQRGNTYTCSVMHEALHSHHTQKSLTQSPG light: EIQMTQSPTSLSASVGDRVTITCRASEGIANNLSWYQQTPGKAPKLLIYATSNLHSGVPSRFSGSGSGTDFTLTISSLQPEDFATYYCQQGFKWPLTFGGGTKLEITRSDAQPSVFLFQPSLDELHTGSASIVCILNDFYPKEVNVKWKVDGVVQNKGIQESTTEQNSKDSTYSLSSTLTMSSTEYQSHEKFSCEVTHKSLASTLVKSFNRSECQRE
